Results reported in PubChem BioAssay AID504834 (National Center for Advancing Translational Sciences (NCATS), 2011).
Hit rate of the full screen: of about 320,000 compounds, about 22,000 (6.9%) were called active. Inconclusive means that the source gave no clear call. Such entries were picked first, then a sample of the others. Calls come from the whole dose curve; as a rule, active = well fitted inhibition curve with a large enough effect; inconclusive = small, poorly fitted or top-dose-only effect, or another doubt; inactive = no such curve, though single readings can be large or run the other way. A potency beside an inconclusive call is a rough fit, not a confirmed value.

Test: Primary qHTS for delayed death inhibitors of the malarial parasite plastid, 96 hour incubation
Conditions: P. falciparum luciferase reporter growth; series mostly up to 28.7 µM; activity change, negative = inhibition: at the top concentration
Outline: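 Luminescence readout: decreased luciferase signal marks inhibited growth of reporter-expressing P. falciparum in infected red cells (2% hematocrit, 0.05% parasitemia final), exposed to compound two generations (96 h, 37 C, 5% CO2).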
% is set by controls: 0 for no effect and ±100 for the full control effect; potency is the fitted concentration of half-maximal effect.

| Structure (SMILES) | Potency | activity change, negative = inhibition |
| --- | --- | --- |
| CCc1cccc(NC(=O)Cn2cc(C=O)c3ccccc32)c1 | inconclusive: 18.5 µM [inhibitor, single point] | – |
| COc1ccc(C(=O)N(C)CC(=O)Nc2cccc(F)c2)cc1S(=O)(=O)NC1CCCC1 | inconclusive: 0.0738 µM [inhibitor, full curve, poor fit] | – |
| Cc1nc(NCCCN2CCOCC2)c2oc3ccccc3c2n1 | inconclusive: 0.37 µM [inhibitor, partial curve, poor fit] | – |
| Cc1ccc(-c2nnc(Nc3ccc4c(c3)OCO4)c3ccccc23)cc1S(=O)(=O)NC(C)C | inconclusive: 1.04 µM [inhibitor, partial curve, poor fit] | – |
| OCC1OC(O)C(O)C(O)C1O (stereo unspecified) | inconclusive: 2.69 µM [inhibitor, partial curve, poor fit] | – |
| Cc1nnc(SCC(=O)N2c3ccccc3Sc3ccccc32)n1N | – | inactive: 251% |
| CC(C)CCn1c(=O)c(C(=O)NCc2ccc3c(c2)OCO3)c(O)c2ccccc21 | inconclusive: 0.828 µM [inhibitor, partial curve, poor fit] | – |
| COc1cc(/C=N/NC(=O)c2ccc3c(c2)OCCO3)c(Br)c(Br)c1O | – | inactive: 34.2% |
| CCN(CC)CCNCC1C(=O)O[C@@H]2C[C@@]3(C)CCC[C@H](C)C3=C[C@H]12 (stereo partly specified) | inconclusive: 18.5 µM [inhibitor, partial curve, poor fit] | – |
| COc1ccc(C(CNC(=O)c2cc3ccccc3cc2O)N2CCOCC2)cc1 (stereo unspecified) | active: 10.4 µM | – |
| CCCn1nc(C(=O)Nc2nnc(C3CC3)s2)c2ccccc2c1=O | inconclusive: 10.4 µM [inhibitor, single point] | – |
| O=C1NC(=O)/C(=C/c2ccc(-c3cc(C(=O)O)ccc3Cl)o2)S1 | inconclusive: 18.5 µM [inhibitor, single point] | – |
| Cc1nnc(SCC(=O)NNC(=O)c2ccc(Br)cc2)n1C | inconclusive: 1.04 µM [inhibitor, full curve] | – |
| Cc1oc(-c2ccc(Cl)cc2)nc1CS(=O)CC(=O)NCCCN1CC(C)CC(C)C1 (stereo unspecified) | inconclusive: 18.5 µM [inhibitor, single point] | – |
| CCn1c(C)cs/c1=N\S(=O)(=O)c1ccccc1 | – | inactive: 85.9% |
| O=C(NCCc1ccc(Cl)cc1)c1ccc(Cn2c(=O)[nH]c3ccccc3c2=O)cc1 | inconclusive: 0.522 µM [inhibitor, partial curve] | – |
| CCn1cc(C(=O)O)c(=O)c2cnc(N3CCN(C(=S)Nc4ccccc4)CC3)nc21 | inconclusive: 0.165 µM [inhibitor, full curve] | – |
| COc1ccccc1C(=O)C1CCCN(C(=O)C2=CC(=O)CC(C)(C)O2)C1 (stereo unspecified) | – | inactive: 0% |
| Cc1c(N2C(=O)C3C4C=CC(C4)C3C2=O)c(=O)n(-c2ccccc2)n1C (stereo unspecified) | – | inactive: 0.142% |
| CCC(=O)c1cn(CC(=O)Nc2cc(C)ccc2C)c2ccccc12 | inconclusive: 9.28 µM [inhibitor, partial curve] | – |
| COc1cc(/C=C(/C#N)c2nc3ccccc3[nH]2)ccc1OCC(=O)Nc1ccccc1C | active: 1.47 µM | – |
| CS(=O)(=O)c1nc(S(=O)(=O)c2ccc(Cl)cc2)c(N2CCOCC2)s1 | inconclusive: 10.4 µM [inhibitor, single point] | – |
| O=C(Cc1ccc(S(=O)(=O)N2CCOCC2)s1)NCCOc1ccccc1F | inconclusive: 16.5 µM [inhibitor, single point] | – |
| O=S(=O)(c1c(F)cccc1F)N1CCCC2CCCCC21 (stereo unspecified) | – | inactive: -29.7% |

As entered above.
`CCC(=O)c1cn(CC(=O)Nc2cc(C)ccc2C)c2ccccc12` | Potency: inconclusive: 9.28 µM [inhibitor, partial curve]
`Cc1ccc(-c2nnc(Nc3ccc4c(c3)OCO4)c3ccccc23)cc1S(=O)(=O)NC(C)C` | Potency: inconclusive: 1.04 µM [inhibitor, partial curve, poor fit]

Further compounds follow.

| Structure (SMILES) | Potency | activity change, negative = inhibition |
| --- | --- | --- |
| COCCN(C(=O)c1csnn1)C(C(=O)NC1CCCCC1)c1ccc(Cl)cc1 (stereo unspecified) | – | inactive: -4.64% |
| O=C(CCC1CCCCC1)Nc1ccc(C(=O)c2ccncc2)cc1 | inconclusive: 18.5 µM [inhibitor, single point] | – |
| COc1ccc(CC(=O)Nc2ccc(S(=O)(=O)N3CCN(C)CC3)cc2)cc1 | inconclusive: 5.22 µM [inhibitor, partial curve, poor fit] | – |
| COc1ccc(NC(=S)N(C(C)C)C2CCN(C(C)C)CC2)cc1Cl | inconclusive: 13.1 µM [inhibitor, single point] | – |
| CC(C)c1cccc(C(C)C)c1NC(=O)Cn1c(=O)cnc2ccccc21 | inconclusive: 18.5 µM [inhibitor, single point] | – |
| COc1ccc(NC(=O)COC(=O)CCCC2=NS(=O)(=O)c3ccccc3N2)cc1Cl | inconclusive: 5.22 µM [inhibitor, partial curve] | – |
| CCC(=O)Nc1c2c(nn1-c1ccccc1)CSC2 | – | inactive: 21.5% |
| COc1cc(CCC(=O)N2CCN(S(=O)(=O)c3ccc(C)c(C)c3)CC2)cc(OC)c1OC | active: 4.65 µM | – |
| O=C1NC(CCc2ccccc2)C(=O)N1CCOc1cccc(Br)c1 (stereo unspecified) | – | inactive: 21.3% |
| Cc1ccc(-n2c3c(c(=O)[nH]c2=O)C(NS(=O)(=O)c2ccc(C)cc2)(C(F)(F)F)C(=O)N3)cc1 (stereo unspecified) | – | inactive: 245% |
| Cc1cccc(C)c1NC(=O)Cn1cnc2c(=O)n(C)c(=O)n(C)c21 | – | inactive: 25.7% |
| CCc1ccc(CN(C)C(=O)c2cc(S(=O)(=O)N3CCN(CC)CC3)ccc2Cl)cc1 | inconclusive: 10.4 µM [inhibitor, single point] | – |
| COc1ccccc1N1CCN(Cc2nc(-c3ccc(F)cc3)oc2C)CC1 | inconclusive: 10.4 µM [inhibitor, single point] | – |
| Cc1ccc(-c2nc(-c3ccncc3)no2)c(C)c1 | inconclusive: 16.5 µM [inhibitor, single point] | – |
| Cc1ccc2nc(C)c3c(c2c1)SCC3 | – | inactive: 16.7% |
| COc1ccc(C2=NC(CO)(CO)CO2)cc1 | inconclusive: 4.65 µM [inhibitor, partial curve] | – |
| O=C1OCC/C1=C\OCCCO/C=C1\CCOC1=O | – | inactive: 19.8% |
| O=C(Nc1ccccc1SCC1CSc2nc3ccccc3c(=O)n21)c1cccc(Cl)c1 (stereo unspecified) | inconclusive: 8.28 µM [inhibitor, partial curve] | – |
| Cc1ccc(NC(=O)c2cncc(Br)c2)cc1S(=O)(=O)N(C)C | – | inactive: 11.6% |
| CN(C)C(=S)SCCn1c(N)nc(N(C)C)nc1=O | – | inactive: -3.73% |
| COc1cc(-c2nc(-c3ccccc3)c(-c3cc([N+](=O)[O-])ccc3C)[nH]2)cc(OC)c1OC | inconclusive: 9.28 µM [inhibitor, single point] | – |
| CCCCn1c(N)c(N(CCC(C)C)C(=O)c2c(C)noc2C)c(=O)[nH]c1=O | – | inactive: 37.8% |
| CNS(=O)(=O)c1cnccc1N1CCN(c2cccc(C)c2)CC1 | active: 10.4 µM | – |

3 entries drawn at random from the list so far:

| Structure (SMILES) | Potency | activity change, negative = inhibition |
| --- | --- | --- |
| COc1cc(CCC(=O)N2CCN(S(=O)(=O)c3ccc(C)c(C)c3)CC2)cc(OC)c1OC | active: 4.65 µM | – |
| COc1ccc(NC(=O)COC(=O)CCCC2=NS(=O)(=O)c3ccccc3N2)cc1Cl | inconclusive: 5.22 µM [inhibitor, partial curve] | – |
| Cc1ccc2nc(C)c3c(c2c1)SCC3 | – | inactive: 16.7% |

Carrying on.

| Structure (SMILES) | Potency | activity change, negative = inhibition |
| --- | --- | --- |
| Cc1nc2cc(OCc3cc(C(=O)NC(C)c4cnn(C)c4)no3)ccc2s1 (stereo unspecified) | inconclusive: 2.62 µM [inhibitor, full curve, poor fit] | – |
| Cc1ccc(C)c(C(=O)CSc2nc(C)cc(=O)[nH]2)c1 | – | inactive: 13.8% |
| Cc1c(C(=O)Nc2ccc(C(F)(F)F)cc2)sc2ncn(CC(=O)N3CCN(c4ccccn4)CC3)c(=O)c12 | inconclusive: 20.8 µM [inhibitor, single point] | – |
| COc1ccc(NC(=S)N2CCC(c3nc4ccc(Cl)cc4[nH]3)CC2)c(OC)c1 | – | inactive: 34.2% |
| CC1=C(C(=O)OC(C)C)C(c2c[nH]c3ccccc23)n2ncnc2N1 (stereo unspecified) | inconclusive: 18.5 µM [inhibitor, single point] | – |
| COC(=O)c1[nH]c2c(c1C)C(=O)CC(c1cccc(OC)c1)C2 (stereo unspecified) | inconclusive: 0.657 µM [inhibitor, full curve, poor fit] | – |
| CCCCCc1c(O)nc(SCCN(CC)CC)[nH]c1=O | inconclusive: 11.7 µM [inhibitor, single point] | – |
| O=C(N/N=C1\CC2CC=CC12)c1ccc(COc2ccccc2)cc1 (stereo unspecified) | inconclusive: 11.7 µM [inhibitor, partial curve, poor fit] | – |
| Cc1cc(C)n2nc(CC(=O)NCc3ccc(F)cc3)nc2n1 | – | inactive: -19.8% |
| CCOc1ccc(-c2ncncc2-c2ccc(OC)cc2)c(O)c1 | inconclusive: 0.117 µM [inhibitor, full curve, poor fit] | – |
| Cc1ccc(C(=O)N2CCN(c3cc(=O)[nH]nc3-c3ccccc3)CC2)cc1 | active: 11.7 µM | – |
| O=C1C=C(c2cccc(Cl)c2O)C[C@@H](c2ccc(F)cc2)C1 | active: 4.65 µM | – |
| Cc1cccc(NS(=O)(=O)c2ccc(C(=O)NCC(c3ccccc3)N(C)C)cc2)c1C (stereo unspecified) | inconclusive: 11.7 µM [inhibitor, single point] | – |
| CCn1cc(CNC(=O)c2cc(COc3ccc(F)cc3Cl)on2)cn1 | inconclusive: 18.5 µM [inhibitor, single point] | – |
| Cc1ccc(N(CC(=O)NCCSc2ccccn2)S(C)(=O)=O)cc1 | – | inactive: 55.6% |
| CCSc1nc(=S)n(-c2ccccc2)c(C)c1C(C)=O | – | inactive: -14.9% |
| CCN(CC)S(=O)(=O)c1cc(NC(=O)CCCOc2ccc(C(C)=O)cc2)ccc1C | – | inactive: -11.3% |
| Cc1ccsc1C(=O)Nc1nccs1 | – | inactive: 35.1% |
| O=C(NCCC1CCCCN1S(=O)(=O)c1ccc(Cl)cc1)C(=O)NCc1ccncc1 (stereo unspecified) | inconclusive: 13.1 µM [inhibitor, partial curve, poor fit] | – |
| CC1(C)Cc2ccccc2-c2nc3ccccc3c(=O)n21 | inconclusive: 11.7 µM [inhibitor, partial curve, poor fit] | – |
| CC1=C(C(=O)NC2CC(C)(C)Cc3c2cnn3-c2ccc(C)cc2)OCCO1 (stereo unspecified) | inconclusive: 13.1 µM [inhibitor, single point] | – |
| Cc1ccc(OCC(=O)Nc2ccc3c(c2)nc2n3CCOC2)cc1 | – | inactive: -29.9% |
| COc1ccc(C[C@H]2c3cc(O)c(OC)cc3CC[N+]2(C)[O-])cc1O (stereo partly specified) | inconclusive: 18.5 µM [inhibitor, single point] | – |
